Results are given in words; binding and its absence hold for the method and conditions named. Some binding calls cover weakened binding; strength is not graded here.
Assays:
[1] = target: His-EsaDc-NFL (His-SUMO-tagged EsaD residues 450-503) (S. aureus) (UniProt Q2G179); assay: pull-down; His-SUMO-tagged protein on Ni-NTA beads with untagged protein (0.16 mM : 0.2 mM); 25 mM Tris-HCl pH 8.0, 1 M NaCl, 24 °C, 30 min; Coomassie-stained SDS-PAGE; both purified
EsaG (S. aureus) = target: T1, EsaG (S. aureus) (UniProt Q2G178); assay: SEC; gel filtration of purified proteins and their mixtures; column and buffer not told for these runs; both purified
T1 sequence: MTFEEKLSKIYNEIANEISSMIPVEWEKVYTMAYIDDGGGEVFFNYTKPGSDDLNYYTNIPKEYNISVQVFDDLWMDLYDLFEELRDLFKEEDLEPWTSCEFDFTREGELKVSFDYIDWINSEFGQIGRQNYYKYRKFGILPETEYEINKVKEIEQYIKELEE

The chains behind the UniProt entries cited, without tags or fusion partners. Residues count along the entry.
NFL (EsaD residues 450-503) (Q2G179, residues 450-503): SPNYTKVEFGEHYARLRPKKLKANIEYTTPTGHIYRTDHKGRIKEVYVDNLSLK
CFL (EsaD residues 504-614) (Q2G179, residues 504-614): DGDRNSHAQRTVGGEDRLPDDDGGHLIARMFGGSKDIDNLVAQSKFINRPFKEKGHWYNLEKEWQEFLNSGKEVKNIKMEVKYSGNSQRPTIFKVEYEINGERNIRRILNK

[2] = target: NFL (EsaD residues 450-503) (S. aureus) (UniProt Q2G179); assay: 2D 1H,15N-HSQC NMR; 15N-CFL (0.25 mM) with unlabeled NFL (1.0 mM) and 15N-NFL (1.0 mM) with unlabeled CFL (1.5 mM), compared with 15N-EsaDc (0.4 mM); 200 mM NaCl, 27 mM KCl, 30 mM Na2HPO4, 1.8 mM KH2PO4, pH 6.5, 20 °C; both purified

Measured: binding

CFL (EsaD residues 504-614) (from UniProt Q2G179 504-614) (domain or fragment)
binds: [1] | EsaG (S. aureus) | [2]
